No constants are given. Whether binding was seen depends on the method and setting. In cells and extracts the contact can be indirect.
Molecular target: MCMV M45 protein, HA-tagged, expressed by the recombinant virus MCMV M45-HA (murine cytomegalovirus (MCMV)) (UniProt Q06A28)
Assay: co-IP; SVEC4-10 cells (WT, Ddx3x ko or Ubr5 ko) infected with MCMV m139-HA or M45-HA (MOI = 5 by the legends), lysed 24 hpi in NP-40 buffer; anti-HA affinity matrix; washes up to 500 mM NaCl; immunoblot

Chains of the proteins cited; added tags and fusions are not shown.
UniProt Q06A28: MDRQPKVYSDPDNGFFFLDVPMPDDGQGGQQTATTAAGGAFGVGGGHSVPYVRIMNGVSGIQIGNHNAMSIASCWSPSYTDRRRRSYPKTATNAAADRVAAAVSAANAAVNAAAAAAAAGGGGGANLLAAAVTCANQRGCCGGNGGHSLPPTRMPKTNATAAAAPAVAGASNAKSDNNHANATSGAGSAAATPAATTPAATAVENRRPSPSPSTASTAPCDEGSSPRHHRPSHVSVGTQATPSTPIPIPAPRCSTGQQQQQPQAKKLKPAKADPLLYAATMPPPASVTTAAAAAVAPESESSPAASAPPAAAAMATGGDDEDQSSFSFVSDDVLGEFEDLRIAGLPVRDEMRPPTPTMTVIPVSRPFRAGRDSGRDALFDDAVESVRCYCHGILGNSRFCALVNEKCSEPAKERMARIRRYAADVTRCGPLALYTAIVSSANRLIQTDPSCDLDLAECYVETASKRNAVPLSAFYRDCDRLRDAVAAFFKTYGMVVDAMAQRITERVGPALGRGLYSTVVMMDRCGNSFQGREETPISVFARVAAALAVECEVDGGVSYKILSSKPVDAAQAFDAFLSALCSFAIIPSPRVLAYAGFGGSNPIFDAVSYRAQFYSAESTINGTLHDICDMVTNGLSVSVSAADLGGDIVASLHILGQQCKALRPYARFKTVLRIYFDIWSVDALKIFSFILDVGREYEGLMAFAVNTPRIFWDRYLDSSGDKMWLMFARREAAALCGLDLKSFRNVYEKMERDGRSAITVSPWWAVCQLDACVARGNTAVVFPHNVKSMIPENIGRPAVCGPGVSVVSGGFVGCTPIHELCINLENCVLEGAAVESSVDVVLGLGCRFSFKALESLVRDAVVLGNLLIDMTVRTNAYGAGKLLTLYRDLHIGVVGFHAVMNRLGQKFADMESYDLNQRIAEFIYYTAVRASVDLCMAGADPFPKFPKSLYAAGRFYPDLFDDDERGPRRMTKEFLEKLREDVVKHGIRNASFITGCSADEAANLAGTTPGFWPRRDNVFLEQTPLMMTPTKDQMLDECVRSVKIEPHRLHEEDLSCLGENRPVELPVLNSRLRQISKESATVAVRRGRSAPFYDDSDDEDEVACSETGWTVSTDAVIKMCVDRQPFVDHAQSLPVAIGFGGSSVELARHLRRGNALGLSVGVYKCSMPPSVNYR
UniProt Q62167: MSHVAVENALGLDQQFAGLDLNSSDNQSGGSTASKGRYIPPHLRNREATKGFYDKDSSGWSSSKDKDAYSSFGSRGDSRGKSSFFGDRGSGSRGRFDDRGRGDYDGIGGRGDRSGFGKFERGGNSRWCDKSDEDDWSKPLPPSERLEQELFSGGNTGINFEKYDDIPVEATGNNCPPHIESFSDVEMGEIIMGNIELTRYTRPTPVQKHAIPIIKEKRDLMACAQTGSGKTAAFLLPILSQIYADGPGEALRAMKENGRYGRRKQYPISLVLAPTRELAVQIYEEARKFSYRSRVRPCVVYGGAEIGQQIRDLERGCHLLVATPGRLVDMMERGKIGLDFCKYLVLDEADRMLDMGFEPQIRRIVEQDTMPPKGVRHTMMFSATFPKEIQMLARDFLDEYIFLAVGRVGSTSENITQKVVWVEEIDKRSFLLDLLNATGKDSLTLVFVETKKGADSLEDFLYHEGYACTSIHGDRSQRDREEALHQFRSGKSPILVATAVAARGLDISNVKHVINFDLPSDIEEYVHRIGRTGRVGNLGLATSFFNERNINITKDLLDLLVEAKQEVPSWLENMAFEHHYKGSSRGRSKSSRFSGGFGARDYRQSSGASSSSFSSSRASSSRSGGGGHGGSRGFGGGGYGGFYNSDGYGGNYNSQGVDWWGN
UniProt Q80TP3: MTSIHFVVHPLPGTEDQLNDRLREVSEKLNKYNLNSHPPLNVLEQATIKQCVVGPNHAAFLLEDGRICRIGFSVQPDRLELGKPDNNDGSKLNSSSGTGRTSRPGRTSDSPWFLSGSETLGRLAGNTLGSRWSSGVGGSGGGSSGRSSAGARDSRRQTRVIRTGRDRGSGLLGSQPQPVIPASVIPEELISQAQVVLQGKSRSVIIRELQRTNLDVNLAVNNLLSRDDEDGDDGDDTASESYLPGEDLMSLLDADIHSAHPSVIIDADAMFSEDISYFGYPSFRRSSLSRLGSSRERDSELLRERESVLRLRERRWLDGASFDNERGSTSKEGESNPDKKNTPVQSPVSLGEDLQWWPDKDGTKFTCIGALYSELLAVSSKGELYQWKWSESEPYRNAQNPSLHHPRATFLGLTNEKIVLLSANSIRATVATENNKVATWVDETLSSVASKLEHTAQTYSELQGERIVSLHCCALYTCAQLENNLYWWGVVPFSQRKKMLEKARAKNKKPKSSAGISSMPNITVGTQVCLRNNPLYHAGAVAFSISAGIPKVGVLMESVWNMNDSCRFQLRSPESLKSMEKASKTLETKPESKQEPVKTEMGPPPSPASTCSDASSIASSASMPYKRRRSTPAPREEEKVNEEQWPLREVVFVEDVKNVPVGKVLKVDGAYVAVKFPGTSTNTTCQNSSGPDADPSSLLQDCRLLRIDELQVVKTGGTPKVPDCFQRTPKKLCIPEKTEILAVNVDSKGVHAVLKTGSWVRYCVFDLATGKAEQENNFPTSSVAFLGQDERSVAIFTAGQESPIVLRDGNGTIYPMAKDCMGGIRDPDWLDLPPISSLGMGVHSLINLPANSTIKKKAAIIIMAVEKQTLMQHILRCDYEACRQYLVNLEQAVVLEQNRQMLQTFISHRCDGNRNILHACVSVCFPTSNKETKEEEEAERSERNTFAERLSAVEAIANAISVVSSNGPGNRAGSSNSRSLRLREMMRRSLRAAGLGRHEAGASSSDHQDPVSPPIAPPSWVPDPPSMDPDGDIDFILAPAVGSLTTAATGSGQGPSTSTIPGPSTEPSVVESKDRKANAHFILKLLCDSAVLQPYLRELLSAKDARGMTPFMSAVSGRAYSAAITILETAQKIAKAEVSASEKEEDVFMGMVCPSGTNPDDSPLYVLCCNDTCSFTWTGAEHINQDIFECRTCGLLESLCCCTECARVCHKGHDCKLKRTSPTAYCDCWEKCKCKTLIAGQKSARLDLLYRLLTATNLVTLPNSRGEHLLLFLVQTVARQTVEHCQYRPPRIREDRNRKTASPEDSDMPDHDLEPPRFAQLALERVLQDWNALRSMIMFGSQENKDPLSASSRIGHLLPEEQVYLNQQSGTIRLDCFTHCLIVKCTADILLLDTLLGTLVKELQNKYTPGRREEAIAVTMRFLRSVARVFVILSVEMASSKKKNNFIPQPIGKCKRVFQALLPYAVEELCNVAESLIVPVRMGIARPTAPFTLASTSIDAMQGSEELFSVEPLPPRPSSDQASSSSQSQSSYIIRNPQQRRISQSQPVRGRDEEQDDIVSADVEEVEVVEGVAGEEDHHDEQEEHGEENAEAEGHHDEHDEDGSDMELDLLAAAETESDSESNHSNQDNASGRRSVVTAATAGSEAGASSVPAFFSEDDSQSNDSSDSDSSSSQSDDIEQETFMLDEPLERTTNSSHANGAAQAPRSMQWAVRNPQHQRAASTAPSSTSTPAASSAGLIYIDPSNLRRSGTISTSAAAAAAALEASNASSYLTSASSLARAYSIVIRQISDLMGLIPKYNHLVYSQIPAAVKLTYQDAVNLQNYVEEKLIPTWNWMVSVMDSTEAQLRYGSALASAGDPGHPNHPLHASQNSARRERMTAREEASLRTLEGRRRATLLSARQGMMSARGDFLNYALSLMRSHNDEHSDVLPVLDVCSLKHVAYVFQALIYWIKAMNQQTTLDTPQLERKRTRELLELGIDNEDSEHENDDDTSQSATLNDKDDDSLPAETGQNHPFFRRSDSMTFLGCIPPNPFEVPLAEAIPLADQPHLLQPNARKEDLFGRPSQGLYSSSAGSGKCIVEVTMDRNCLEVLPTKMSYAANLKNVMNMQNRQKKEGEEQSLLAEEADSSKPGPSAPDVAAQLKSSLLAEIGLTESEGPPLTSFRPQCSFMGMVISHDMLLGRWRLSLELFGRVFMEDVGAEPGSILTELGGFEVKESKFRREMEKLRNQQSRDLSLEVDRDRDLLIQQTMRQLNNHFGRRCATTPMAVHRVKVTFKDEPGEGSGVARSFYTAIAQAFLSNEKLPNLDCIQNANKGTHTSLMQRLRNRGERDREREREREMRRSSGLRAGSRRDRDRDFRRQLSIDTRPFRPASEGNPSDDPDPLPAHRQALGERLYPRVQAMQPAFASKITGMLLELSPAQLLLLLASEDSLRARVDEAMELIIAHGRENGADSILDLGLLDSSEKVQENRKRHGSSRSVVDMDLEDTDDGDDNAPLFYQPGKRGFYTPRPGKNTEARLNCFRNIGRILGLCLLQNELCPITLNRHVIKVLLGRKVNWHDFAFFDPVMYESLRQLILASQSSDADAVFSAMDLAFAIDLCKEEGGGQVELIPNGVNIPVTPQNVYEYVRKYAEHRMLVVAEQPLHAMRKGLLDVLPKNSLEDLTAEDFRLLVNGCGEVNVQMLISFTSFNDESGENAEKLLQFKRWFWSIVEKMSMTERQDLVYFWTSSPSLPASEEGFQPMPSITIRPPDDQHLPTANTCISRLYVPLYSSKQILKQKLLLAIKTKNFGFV

Molecule | binding
ATP-dependent RNA helicase DDX3 (DDX3X), mouse, endogenous (from UniProt Q62167 1-662) | no binding
E3 ubiquitin-protein ligase UBR5, mouse, endogenous (from UniProt Q80TP3 1-2792) | no binding
Interferon-induced protein with tetratricopeptide repeats 1 (IFIT1), mouse, endogenous (protein, UniProt Q64282 1-463) MGENADGDQVMENLLQLRCHFTWKLLFENNDIPDLEVRISEQVQFLDIKNPLGMHNLLAYVRHLKGQQDEALQSLKEAEALIQSEQLSKRSLATWGNCAWLHYHRGSLAEAQIYLDKVEKVCKEFSSPFRYRLECAEMDCEEGWALLKCGGGNYKQAMACFAKALKVEPENPEYNTGYAVVAYRQDLDDNFISLEPLRKAVRLNPEDPYLKVLLALKLQDLGEHVEAEAHIEEALSSTSCQSYVIRYAAKYFRRKHRVDKALHLLNRALQASPSSGYLHYQKGLCYKQQISQLRTSRNRQPRRQDNVQELAQQAIHEFQETLKLRPTFEMAYVCMAEVQAEIHQYEEAERNFQKALNNKTLVAHIEQDIHLRYGRFLQFHKQSEDKAITLYLKGLKVEEKSFAWRKLLTALEKVAERRVCQNVHLVESTSLLGLVYKLKGQEKNALFYYEKALRLTGEMNPAF | no binding
